“Also recorded” adds a separate entry of the source. For at least one compound, name, drawing or mass did not settle the structure.
Legend:
Buchnera = test: Buchnera/aphid DNA copy number by qPCR; assay type: in vivo, Acyrthosiphon pisum
[1] = test system: Acyrthosiphon pisum aphids; test: Aphid developmental stage monitoring; assay type: in vivo
Protocol: (§1) In addition, the developmental stage (1st, 2nd, 3rd, 4th, 5th instar) was determined daily throughout the experiment. Once an aphid reached the 4th instar stage, they were given their own artificial feeding system in a deep petri dish so that fecundity could be monitored once they reached adulthood.
(§2) Each treatment group received approximately the same number of individuals from each of the collection plant. For each treatment, 20 aphids were placed onto each leaf. Aphids were monitored daily for survival and dead aphids were removed when they were discovered. In addition, the developmental stage (1st, 2nd, 3rd, 4th, 5th instar, and 5 R, representing a reproducing 5th instar) was determined daily throughout the experiment. Pictures of aphids were taken throughout the experiment to evaluate size differences between treatment groups.
Aphids LSR-1 (which harbor only Buchnera), Acyrthosiphon pisum were grown on fava bean plants (Vroma vicia faba from Johnny's Selected Seeds) in a climate-controlled incubator (16 h light/8 h dark photoperiod; 60±5% RH; 25±2° C.). Prior to being used for aphid rearing, fava bean plants were grown in potting soil at 24° C. with 16 h of light and 8 h of darkness. To limit maternal effects or health differences between plants, 5-10 adults from different plants were distributed among 10 two-week-old plants, and allowed to multiply to high density for 5-7 days. For experiments, first and second instar aphids were collected from healthy plants and divided into 2 different treatment groups: 1) negative control (leaf injected with water plus blue food coloring) and 2) leaf injected with 50 μg/ml rifampicin in water plus blue food coloring. Each treatment group received approximately the same number of individuals from each of the collection plants. For treatment, rifampicin stock solution (25 mg/ml in 100% methanol) was diluted to 50 μg/ml in water plus blue food coloring. The solution was then placed into a 1.5 ml Eppendorf tube with a fava bean stem perfused with the solutions and the opening of the tube was closed using parafilm. This feeding system was then placed into a deep petri dish (Fisher Scientific, Cat #FB0875711) and aphids were applied to the leaves of the plant. For each treatment, 74-81 aphids were placed onto each leaf. The feeding systems were changed every 2-3 days throughout the experiment. Aphids were monitored daily for survival and dead aphids were removed from the deep petri dish when they were discovered. In addition, the developmental stage (1st, 2nd, 3rd, 4th, 5th and 5 R (5th that has reproduced) instar) was determined daily throughout the experiment.
In addition, the developmental stage (1st 2nd, 3rd, 4th, 5th and 5 R (5th that has reproduced) instar) was determined daily throughout the experiment.
(§3) In addition, the developmental stage (1st, 2nd, 3rd, 4th, 5th, and 5 R (5th that has reproduced) instar) was determined daily throughout the experiment.
In addition, the developmental stage (1st, 2nd, 3rd, 4th, 5th and 5 R (5th that has reproduced) instar) was determined daily throughout the experiment.
In addition, the developmental stage (1st, 2nd, 3rd, 4th, 5th, and 5 R (5th instar aphids that are reproducing) instar) was determined daily throughout the experiment.
In addition, the developmental stage (1st, 2nd, 3rd 4th and 5th instar) was determined daily throughout the experiment.
as §1, with “5th, and 5 R (5th that has reproduced)” for “5th”
as §3

[2] = test system: Acyrthosiphon pisum aphids; test: Aphid size (body area) from images; assay type: in vivo
Protocol: (§4) For adult aphids, new nymphs were counted daily and then discarded. At the end of the experiments, fecundity was determined as the mean number of offspring produced daily once the aphid reached adulthood. Pictures of aphids were taken throughout the experiment to evaluate size differences between treatment groups.
as §2, with “Pictures of aphids were taken throughout the experiment to evaluate size differences between treatment groups.” left out
(§5) For adult aphids, new nymphs were counted daily and then discarded. At the end of the experiments, fecundity was measured in two ways: 1) the mean day at which the first offspring for the treatment group was determined and 2) the mean number of offspring produced daily once the aphid reached adulthood. […]
Aphids LSR-1 (which harbor only Buchnera), Acyrthosiphon pisum were grown on fava bean plants (Vroma vicia faba from Johnny's Selected Seeds) in a climate-controlled incubator (16 h light/8 h dark photoperiod; 60±5% RH; 25±2° C.). […] Aphids were monitored daily for survival and dead aphids were removed from the deep petri dish when they were discovered. […]

[3] = test system: Acyrthosiphon pisum aphids; test: Aphid fecundity; assay type: in vivo; settings: through plants, 100 μg/ml in artificial diet with or without essential amino acids
Protocol: as §1, §4
as §1, with “5th, and 5 R (5th that has reproduced)” for “5th”
as §5
In addition, the developmental stage (1st, 2nd, 3rd, 4th, 5th instar) was determined daily throughout the experiment. […]

[4] = test system: Acyrthosiphon pisum aphids; test: Aphid survival monitoring; assay type: in vivo
Wolbachia = Wolbachia quantification by qPCR in midguts of doxycycline blood-fed mosquitoes; assay type: in vivo, Aedes vexans; settings: doxycycline 1, 10 or 50 μg/ml in blood meals; midgut
Aedes vexans mosquitoes = test: Survival of mosquitoes given doxycycline blood meals; assay type: in vivo; settings: doxycycline 1, 10 or 50 μg/ml in blood meals
[5] = leaf coating, 50 μg/ml in 0.025% Silwet L-77
[6] = leaf perfusion and delivery through plant, 100 μg/ml
[7] = through plants, 100 μg/ml in artificial diet with essential amino acids

CO[C@H]1/C=C/O[C@@]2(C)Oc3c(C)c(O)c4c(O)c(c(/C=N/N5CCN(C)CC5)c(O)c4c3C2=O)NC(=O)/C(C)=C\C=C\[C@H](C)[C@H](O)[C@@H](C)[C@@H](O)[C@@H](C)[C@H](OC(C)=O)[C@@H]1C [rifampicin]
Buchnera/aphid DNA copies versus control (Buchnera; combination delivery, 100 μg/ml, 7 days): statistically significant and drastic reduction
Buchnera/aphid DNA copies versus control (Buchnera; leaf coating, 50 μg/ml, 6 days of treatment): drastic reduction; also recorded: eliminated endosymbiotic Buchnera
Buchnera/aphid DNA copies versus control (Buchnera; leaf perfusion and cutting, 50 μg/ml, 8 days): reduction
Buchnera/aphid DNA copies versus control (Buchnera; leaf perfusion and delivery through plant, 100 μg/ml, day 6): statistically significant reduction
Buchnera/aphid DNA copies versus control (Buchnera; leaf perfusion and delivery through plant, 100 μg/ml, day 8): statistically significant reduction
Buchnera/aphid DNA copies versus control (Buchnera; microinjection, 50 μg/ml, 10 nl nymph / 20 nl adult, 4 days): drastic reduction; also recorded: eliminated endosymbiotic Buchnera
Buchnera/aphid DNA copies versus control (Buchnera; topical delivery (spray), 50 μg/ml, 3 days): drastic reduction; also recorded: eliminated endosymbiotic Buchnera
aphid development ([1]; combination delivery (spray of aphid and plant plus through plant), 100 μg/ml): delayed
aphid development [1, 5]: delayed aphid development
aphid development ([1]; leaf perfusion and cutting, 50 μg/ml, LSR-1 1st and 2nd instar): delayed
aphid development [1, 6]: delayed
aphid development [1, 7]: developed faster and to higher instar stages as compared to aphids treated with rifampicin alone; also recorded: partially rescues development defects
aphid development ([1]; through plants, 100 μg/ml in artificial diet without essential amino acids, LSR-1 1st instar): delayed; also recorded: delay in aphid development
aphid size (area) [2, 5]: drastically affected; also recorded: drastic effect
aphid size (area) ([2]; through plants, 100 μg/ml in artificial diet without essential amino acids, 12 days): drastically affected; also recorded: drastic effect
aphid reproduction (offspring) [3]: unable to reach adulthood and produce offspring; also recorded: loss of reproduction
aphid survival ([4]; combination delivery, 100 μg/ml): slightly lower survival rates; also recorded: no statistically significant differences between groups
aphid survival [4, 5]: lower survival rates; also recorded: aphid death
aphid survival ([4]; leaf perfusion and cutting, 50 μg/ml): lower survival rates
aphid survival [4, 6]: lower survival rates; also recorded: no statistically significant differences between groups
aphid survival [4, 7]: survived longer than those treated with rifampicin alone
aphid survival ([4]; through plants, 100 μg/ml in artificial diet without essential amino acids): lower survival rates; also recorded: aphid death

C[C@H]1c2cccc(O)c2C(=O)C2=C(O)[C@]3(O)C(=O)C(C(N)=O)=C(O)[C@@H](N(C)C)[C@@H]3[C@@H](O)[C@@H]21 [doxycycline]
Wolbachia specific genes (16S rDNA qPCR, ratio to S7) (Wolbachia): reduction of Wolbachia specific genes
survival rate of mosquitoes (Aedes vexans mosquitoes): decreased compared to the control
